Measured values published in paper PMC6019040.
For at least one entry, the source does not settle the construct or the ends of the probe.

system: GST-CsMYB6 (Cucumis sativus); assay: EMSA; settings: 3 ug protein, 25 pM probe, 50-fold unlabeled competitor also tested; LightShift Chemiluminescent EMSA kit (Thermo) per manufacturer; 3 ug GST-CsMYB6; pH and temperature not stated; recombinant protein; protein details: N-terminal GST; label: biotin on both strands (printed as 5' biotin)

Binding result, binds:
CCAACCCAACAAGTCAACCAACAAACTTAC (double strand) [CsTRY promoter MBS probe 1 (Biotin1)], CCCTGTAAGTTGTCAACTACAAGTCTACCA (double strand) [CsTRY promoter MBS probe 2 (Biotin2)], CTAATTAGTTGTCAACTCATGATCATTGAA (double strand) [CsTRY promoter MBS probe 3 (Biotin3)]
